Data on 1 molecule can be found in paper PMC4255636.

Protein sequences, listed by entry. Tags and fused reporters are not part of them. Residues count along the entry.
UniProt P28799, residues 18-593: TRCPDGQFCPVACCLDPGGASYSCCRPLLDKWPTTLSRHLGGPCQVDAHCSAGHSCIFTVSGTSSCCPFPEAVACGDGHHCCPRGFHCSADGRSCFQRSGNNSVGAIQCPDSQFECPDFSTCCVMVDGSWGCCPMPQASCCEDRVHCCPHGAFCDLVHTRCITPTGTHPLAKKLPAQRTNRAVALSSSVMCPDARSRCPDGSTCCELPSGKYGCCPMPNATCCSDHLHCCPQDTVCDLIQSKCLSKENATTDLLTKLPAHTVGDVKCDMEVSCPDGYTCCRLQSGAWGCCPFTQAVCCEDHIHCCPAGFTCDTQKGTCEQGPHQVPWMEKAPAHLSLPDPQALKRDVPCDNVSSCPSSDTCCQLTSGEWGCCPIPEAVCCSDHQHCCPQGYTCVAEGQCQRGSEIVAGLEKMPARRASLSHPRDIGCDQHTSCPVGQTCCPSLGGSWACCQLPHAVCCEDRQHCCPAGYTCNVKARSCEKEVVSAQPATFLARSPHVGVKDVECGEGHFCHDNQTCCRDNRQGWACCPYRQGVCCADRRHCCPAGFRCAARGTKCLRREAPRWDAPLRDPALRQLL

The target in this assay is Flag-tagged progranulin (PGRN) (human) (UniProt P28799). As to the kind of experiment: co-IP; Myc-tagged PLD3 and Flag-tagged PGRN coexpressed in HEK293 cells; protein extract immunoprecipitated with anti-Flag M2 affinity gel then western blot with anti-Myc, or with anti-Myc agarose then western blot with anti-Flag; normal IgG as control. (Immunoblotting shows a protein as a band on a membrane.)

These are yes or no findings as the source states them, for the method shown. Binding seen in cells or lysates may run through a third protein. Some entries that bind do so weakly or less than the wild type. Where a sequence is shown, tags or fusion partners need not be part of it.

B1: Myc-tagged phospholipase D3 (PLD3) (protein, UniProt Q8IV08 1-490)
chain: MKPKLMYQELKVPAEEPANELPMNEIEAWKAAEKKARWVLLVLILAVVGFGALMTQLFLWEYGDLHLFGPNQRPAPCYDPCEAVLVESIPEGLDFPNASTGNPSTSQAWLGLLAGAHSSLDIASFYWTLTNNDTHTQEPSAQQGEEVLRQLQTLAPKGVNVRIAVSKPSGPQPQADLQALLQSGAQVRMVDMQKLTHGVLHTKFWVVDQTHFYLGSANMDWRSLTQVKELGVVMYNCSCLARDLTKIFEAYWFLGQAGSSIPSTWPRFYDTRYNQETPMEICLNGTPALAYLASAPPPLCPSGRTPDLKALLNVVDNARSFIYVAVMNYLPTLEFSHPHRFWPAIDDGLRRATYERGVKVRLLISCWGHSEPSMRAFLLSLAALRDNHTHSDIQVKLFVVPADEAQARIPYARVNHNKYMVTERATYIGTSNWSGNYFTETAGTSLLVTQNGRGGLRSQLEAIFLRDWDSPYSHDLDTSADSVGNACRLL
In the case of B1, the binding entry is on record as “binds”.
